The other results are listed elsewhere or left out. These are further read-outs of the screen, such as a control signal, another cell line or another target. No call is given for them. The list favours compounds with an active or inconclusive main result. Potencies come from curve fits of mixed quality, noted in brackets.
Experiment: qHTS Assay for Lipid Storage Modulators in Drosophila S3 Cells;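 as to cell number change: cells counted by Cell Tracker Red CMTPX staining in the red channel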
Details: BODIPY lipid droplet fluorescence, 18-24 h; for cell number change: measured here: cell count max response, cells fed with added oleic acid
Summary of the method: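 Drosophila S3 cells loaded with oleic acid (400 uM, as added) and compounds at several concentrations; lipid droplets imaged by 488-nm laser-scanning cytometry, 500–530 nm intensity and object ratio to cell channel. Percent activity normalized to 20 uM Triacsin C.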

[1] = measured here: lipid fluorescence (Fed channel) AC50, cells fed with added oleic acid
[2] = measured here: cell number channel AC50, cells fed with added oleic acid

SMILES	cell number change	AC50 [1]	AC50 [2]
CC(C)c1ccc(N(C(=O)CNC(=O)c2ccco2)C(C(=O)NC2CCCC2)c2cccnc2)cc1 (stereo not drawn)	24.6%	0.164 µM [falling, full curve]	–
CCN(C(=O)C12CC3CC(CC(C3)C1)C2)C1CCS(=O)(=O)C1 (stereo not drawn)	-26%	23.1 µM [falling, partial curve]	–
CC(C)C(=O)NCCc1nc2ccccc2n1CCCOc1ccc(Cl)cc1	-48.6%	23.1 µM [falling, partial curve]	25.9 µM [falling, single point]
CCN(CC(=O)Nc1c(F)cccc1F)C(=O)Cc1ccccc1	24.1%	16.4 µM [rising, single point]	–
COc1ccc(C(=O)NCC(=O)N2CC=C(c3ccccc3)CC2)cc1OC	19.7%	4.11 µM [rising, full curve, poor fit]	–
NC1CCCCC1N=Cc1c(O)n(CCc2ccc(F)cc2)c(=O)[nH]c1=O (stereo not drawn)	-19.9%	0.731 µM [falling, single point]	–
COc1ccc(S(=O)(=O)N2CCCCC2)cc1NC(=O)C1COc2ccccc2O1 (stereo not drawn)	-26.9%	2.59 µM [falling, partial curve, poor fit]	–
C=CCn1cc(/C=C/c2cc[n+](C)cc2)c2ccccc21	-14.2%	14.6 µM [falling, partial curve, poor fit]	–
CC(NC(=O)c1ccccc1NC(=O)c1ccccc1)C(=O)N1CCOCC1 (stereo not drawn)	-50%	–	20.6 µM [falling, single point]
O=C(c1ccc2c(c1)N(Cc1ccccc1F)C(=O)c1ccccc1S2)N1CCOCC1	17.6%	6.51 µM [rising, partial curve, poor fit]	–
Cc1onc(-c2ccccc2)c1C(=O)NNC(=O)c1ccccc1Br	15.9%	7.31 µM [rising, partial curve]	–
O=C(NC1CCCCC1)C(c1ccccc1)N1CCCC1 (stereo not drawn)	–	–	6.51 µM [rising, single point]
Cc1ccccc1OCC(=O)N/N=C/c1cccn1C	30.9%	–	2.59 µM [rising, full curve]
O=C(c1cc(-c2ccco2)on1)N1CCOCC1	-11.7%	–	3.66 µM [falling, single point]
COc1ccc(OC)c(N2C(N)=C(C#N)C(c3ccc(OC)c(O)c3)C3=C2CC(C)(C)CC3=O)c1 (stereo not drawn)	9.35%	0.0259 µM [rising, full curve, poor fit]	–
O=S(=O)(c1ccccc1)N1CCC(c2ccccc2)CC1	-4.69%	0.517 µM [rising, partial curve]	–
CC(C)CC(NC(=O)C1CCC(C)CC1)C(=O)NCCN1CCOCC1 (stereo not drawn)	12.6%	29.1 µM [rising, single point]	–
CCCN(CC1CC1)C(=O)COC(=O)c1oc2ccc(OCC)cc2c1C	–	2.06 µM [falling, full curve]	–
CC(=O)Oc1ccc(-c2csnn2)cc1	16.4%	–	–

Quoted from the listing:
Under cell number change, Cc1onc(-c2ccccc2)c1C(=O)NNC(=O)c1ccccc1Br reads 15.9%
Under AC50 [1], O=C(c1ccc2c(c1)N(Cc1ccccc1F)C(=O)c1ccccc1S2)N1CCOCC1 reads 6.51 µM [rising, partial curve, poor fit]

Remaining list, next part.

SMILES	cell number change	AC50 [1]	AC50 [2]
COc1cccc(CC2(CO)CCCN(Cc3ccc(OC)c(C)c3OC)C2)c1 (stereo not drawn)	-6.74%	–	–
Cc1cc(C)cc(N(CCC(=O)O)S(=O)(=O)c2ccc3ccccc3c2)c1	18.9%	29.1 µM [rising, single point]	–
Fc1ccc(-c2nnn(Cc3nc4ccccc4s3)n2)cc1	-0.163%	23.1 µM [rising, single point]	–
COc1cc(C(=O)NNc2nc3cc4c(cc3s2)OCO4)cc(OC)c1OC	9.25%	0.0651 µM [rising, full curve, poor fit]	–
COc1cc(C(=O)N2CCCCC2)ccc1OCC(=O)Nc1ccc(F)cc1	4.71%	29.1 µM [falling, single point]	–
CC(=O)c1c(C)[nH]c(C(=O)OCCOc2ccccc2)c1C	15.1%	6.51 µM [rising, single point]	–
COc1ccc2c(Cl)c(C(=O)N/N=C/c3cccnc3)sc2c1	-4.17%	11.6 µM [rising, single point]	–
CC1CCN(S(=O)(=O)c2ccc3ccccc3c2)CC1	–	5.17 µM [falling, partial curve]	–
O=C(Nn1c(C2CCCCC2)nc2ccccc2c1=O)c1ccc(Cl)c([N+](=O)[O-])c1	-18%	0.82 µM [falling, full curve, poor fit]	1.03 µM [falling, full curve, poor fit]
Cc1cccc(NC(=O)Nc2ccc(F)cc2)n1	10.2%	0.092 µM [rising, full curve, poor fit]	–
C=CCn1c(SCc2ccc(C(=O)Nc3nccs3)cc2)nnc1-c1ccc(C)c(Cl)c1	-40.2%	29.1 µM [falling, single point]	20.6 µM [falling, single point]
Cc1ccc(N(C(=O)c2ccco2)C(C(=O)NC2CCCC2)c2cccnc2)cc1C (stereo not drawn)	-11.5%	5.17 µM [falling, single point]	5.8 µM [rising, single point]
CCCn1c(SCC(=O)NC2CCC(C)CC2)n[nH]c1=O (stereo not drawn)	-11.6%	–	–
O=C(O)Cc1sc(Nc2cccc3ccccc23)nc1-c1ccccc1	–	0.231 µM [falling, full curve]	–
CCc1ccc(CNc2ccc3c(c2)ncn3CC)cc1	-31.3%	20.6 µM [falling, single point]	25.9 µM [falling, single point]
CC1CCC(NC(=O)c2cc(S(=O)(=O)N3CCCCC3)c[nH]2)CC1 (stereo not drawn)	24.6%	–	–
COc1ccc(NC(=O)C(C)N(c2ccc(C)cc2)S(C)(=O)=O)cc1 (stereo not drawn)	83.6%	6.51 µM [falling, single point]	20.6 µM [rising, partial curve]
O=c1[nH]c2cccnc2n(CCNc2ncc(C(F)(F)F)cc2Cl)c1=O	–	6.51 µM [falling, single point]	–
COc1ccc(C)cc1NC(=O)C(OC(=O)c1cccc(S(=O)(=O)N(C)c2ccccc2)c1)c1ccccc1 (stereo not drawn)	1.9%	2.31 µM [falling, partial curve]	–

Source: PubChem BioAssay AID2685 (National Center for Advancing Translational Sciences (NCATS), 2010)
